Results taken from article PMC8910471, “The Finely Coordinated Action of SSB and NurA/HerA Complex Strictly Regulates the DNA End Resection Process in Saccharolobus solfataricus”.
For at least one entry, the source does not settle the construct or the ends of the probe. At least one verdict was read from the data and is not stated in words by the source.

Tested on: NurA + HerA
Test: EMSA
Settings: NurA/HerA without SSB; EMSA: 5 pmol fluorescent DNA in 10 ul, 20 mM HEPES/NaOH pH 7.5, 35 mM beta-mercaptoethanol, 500 mM NaCl, 10 min room temperature; recombinant protein; single-stranded DNA

Sequence: GTTTTCCCAGTCACGAC [17 merTAMRA]
- binding result: binds
